# Reference: PubChem BioAssay AID493014 (National Center for Advancing Translational Sciences (NCATS), 2011)
# The campaign covered roughly 340,000 compounds. About 170 (0.05%) were called active. This list was built around the results that the source calls inconclusive (neither active nor inactive); the mix of calls is not that of the screen. Calls follow the shape of the dose curve; as a rule, active = well fitted inhibition curve with a large enough effect in the signal ratio, with a control signal flat (not every such curve was filed as active); inconclusive = small, poorly fitted or top-dose-only effect, or effect the other way, or a change in a side signal; inactive = flat fitted curve, though single readings scatter; the % refers to the signal ratio. A potency beside an inconclusive call is a rough fit, not a confirmed value.
# Assay: qHTS Assay to Find Inhibitors of Chronic Active B-Cell Receptor Signaling;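 as to activity change, negative = inhibition: plate controls were basal doxycycline-induced cells for no effect and cells given 10 µM MG132 for full effect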
# Settings: ABC-DLBCL IkBa-CBG/CBR reporter, luminescence ratio (green luciferase fused to IkBa over red control in TMD8 lymphoma cells), 4 h; activity change, negative = inhibition: at 46.1 µM (top of the series)
# How it was run: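 Concentration-response series (up to 46 uM) were applied to TMD8 dual-reporter cells for 4 h at 37C with doxycycline. Green/red ratio, after filter-overlap correction, defined %Activity; red signal alone was normalised to basal cells and zero luminescence.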
# Potency is read from the fitted curve at half-maximal effect.
SMILES,"activity change, negative = inhibition",Potency
CC(C)CC(=O)NC(=S)NNC(=O)c1cccc([N+](=O)[O-])c1,inconclusive: 4.29%,
C=CCOc1nc2c(c(=O)n(Cc3ccc(Cl)cc3)c(=O)n2C)n1C,inactive: -0.0619%,
O=C(Nc1ccc(N=Nc2ccccc2)cc1)c1ccccc1Cl,,"inconclusive: 4.61 µM [rising, partial curve, poor fit]"
COc1cccc(/C=N/Nc2ncnc3scc(-c4ccccc4)c23)c1O,,"inconclusive: 18.4 µM [falling, single point]"
Cc1ccccc1CSc1nnnn1-c1ccc(C(N)=O)cc1,inconclusive: -0.906%,
O=C1c2ccccc2-c2ccc(C(=O)N3CCOCC3)cc21,inconclusive: -7.04%,
COc1ccc(-c2cc(=O)[nH][nH]2)cc1,,"inconclusive: 29.1 µM [falling, single point]"
CC1C(=O)C(C)(C)C(=O)OC1c1ccc([N+](=O)[O-])cc1 (stereo not drawn),inactive: -0.82%,
CCN(CC)CCNC(=O)c1cc(Nc2ccc(OC)c(OC)c2)nc2ccccc12,inactive: -0.346%,
CCC(=O)Nc1nc2ccc(NC(=O)c3cc(OC)c(OC)c(OC)c3)cc2s1,inactive: -21.8%,
COc1ccc(-c2cc(-c3ccccc3O)[nH]n2)cc1,,"inconclusive: 35.5 µM [rising, partial curve]"
COc1ccc(N2CC(C(=O)N(C)CC(=O)Nc3ccc(Cl)c(C(F)(F)F)c3)CC2=O)c(OC)c1 (stereo not drawn),inconclusive: -2.63%,
C/C(Nc1ccc(F)cc1)=C(/C#N)C(N)=O,inconclusive: -2.14%,
O=C(CN1CCN(S(=O)(=O)c2ccc3ccccc3c2)CC1)N1CCc2ccccc2C1,inconclusive: -75.6%,
Cc1cc(Cl)cc(C)c1OCCCCCn1ccnc1,inactive: -0.665%,
CC(C)(C)NC(=O)[C@@H]1C[C@@H]2CCCC[C@@H]2CN1C[C@@H](O)[C@H](Cc1ccccc1)NC(=O)[C@H](CC(N)=O)NC(=O)c1ccc2ccccc2n1,inconclusive: 4.8%,
CCOC(=O)CSc1nc2ccccc2c(=O)n1CC(C)C,inconclusive: -5.36%,
Cc1cc(=O)oc2cc(OCC(=O)N/N=C/c3cc([N+](=O)[O-])ccc3O)ccc12,inactive: 25.2%,
COc1ccc(OC)c(NS(=O)(=O)c2ccc(NC(=O)c3ccc(NS(C)(=O)=O)cc3)cc2)c1,inconclusive: -20.7%,
O=C(CSc1nc2c(sc3ccccc32)c(=O)n1CCCN1CCCC1)NCc1ccco1,inactive: -6.76%,
CN(C)S(=O)(=O)c1cccc(NC(=O)c2ccc3c(c2)OCCO3)c1,inconclusive: -0.661%,

SMILES,"activity change, negative = inhibition",Potency
CCOC(=O)C1CCN(S(=O)(=O)c2ccc3[nH]c(=O)oc3c2)CC1,,"inconclusive: 6.51 µM [rising, single point]"
NC(=O)CN1C(=O)NC2(CCOc3ccccc32)C1=O (stereo not drawn),inconclusive: -0.429%,
COc1ccc(/C=C/CN2CCC(CO)(Cc3ccccc3Cl)CC2)cc1,,"inconclusive: 7.94 µM [falling, partial curve, poor fit]"
COc1ccccc1CN1CC(C(=O)N(C)Cc2[nH]c3ccccc3c2C)CCC1=O (stereo not drawn),inactive: -1.44%,
CCn1c(CNc2ccc(Cl)cc2)nnc1SCC(=O)OC1CCCCC1,inconclusive: -10.4%,
COc1ccc2c(c1)c(C(O)CN1CCC(Cc3ccccc3)CC1)c(C)n2C (stereo not drawn),inconclusive: -4.88%,
CCCCNC(=S)N1CCn2cccc2C1c1ccc(F)cc1 (stereo not drawn),inactive: 10.3%,
C=CCn1c(-c2c(C)nc3cc(C)ccn23)n[nH]c1=S,inactive: 1.04%,
Cc1cc(NC(=O)c2cc(-c3ccc(O)cc3)on2)no1,,"inconclusive: 12.6 µM [falling, partial curve]"
O=C(c1ccsc1)N1CCCC(N2CCN(c3ccccc3F)CC2)C1 (stereo not drawn),inconclusive: -7.99%,
CCOc1ccc(Nc2nc3c(c(=O)[nH]2)CCCC3)cc1,inconclusive: 4.66%,
COc1ccc(/C=C/c2nc(-c3ccccc3)cc(=O)[nH]2)cc1,inconclusive: -7.63%,
Cc1cc2oc(=O)cc(CN3CCCCC3)c2cc1C,inconclusive: 0.156%,
Cc1ccc(NC(=O)Nc2nnc(SCC(=O)N3CCCCC3)s2)cc1,inactive: 26%,
O=C(NCCCN1CCOCC1)c1ccc2c(c1)N(Cc1c(F)cccc1Cl)C(=O)c1ccccc1S2,inconclusive: 2.58%,
CNC(=O)c1[nH]cnc1C(=O)N[C@@H](CCCCNC(=O)OC(C)(C)C)C(=O)OC(C)(C)C,,"inconclusive: 12.6 µM [falling, single point]"
O=C(CNc1ccc2ccccc2c1)N/N=C/c1ccccn1,inactive: 4.52%,
CCN(CC)S(=O)(=O)c1cc(C(=O)Oc2cccc(-c3cnc4ccccc4n3)c2)ccc1OC,inactive: 0.717%,
O=C(CCc1nc2ccccc2c(=O)[nH]1)OCc1cccc(C(F)(F)F)c1,inactive: -0.773%,
CC(C)COc1ccc(/C(=N/O)c2ccccc2)cc1,inconclusive: -25.9%,
CCOC(=O)c1cnc(SCC(=O)N2CCc3ccccc32)nc1N,inconclusive: -3.33%,

SMILES,"activity change, negative = inhibition",Potency
COc1ccc(C(=O)NCCNc2nc3ccc(C)cc3cc2C#N)cc1,inconclusive: -1.13%,
COc1cccc(C(=O)Nc2cc(NC(=O)c3cccs3)ccc2C)c1OC,,"inconclusive: 10 µM [falling, partial curve, poor fit]"
Cc1ccc(-n2ncc3c(Nc4ccc(Oc5ccccc5)cc4)ncnc32)c(C)c1,inconclusive: 23.4%,
CCc1nc(Sc2nnnn2-c2ccccc2)c2c3c(sc2n1)CCCC3,inactive: 4.52%,
Oc1ccccc1-c1nc2cnccn2c1Nc1ccc2c(c1)OCCO2,inconclusive: -1.65%,
[O-]/C(=C(\C(=S)Nc1cccc2ccccc12)[n+]1ccccc1)c1ccc2c(c1)OCCO2,,"inconclusive: 29.1 µM [falling, single point]"
Fc1ccc(-c2nnc3n2CCCCC3)cc1,inactive: 0.531%,
Cc1cc(Cl)c(OCCOCCN2CCN(C)CC2)c(Br)c1,inactive: 0.518%,
CCNc1sc(S(C)(=O)=O)nc1S(=O)(=O)c1ccc(Cl)cc1,inactive: 3.07%,
Cc1cnc(CN2CCCC(C(=O)c3ccc4c5c(cccc35)CC4)C2)[nH]1 (stereo not drawn),,"inconclusive: 17.8 µM [falling, single point]"
CC(C)NCC(O)c1ccc(O)c(O)c1 (stereo not drawn),inactive: -1.13%,
COc1ccc(N2CCC(CNS(=O)(=O)c3cccc(C(F)(F)F)c3)C2)cc1 (stereo not drawn),inconclusive: 5.16%,
COc1ccc(-c2csc(N)n2)cc1F,inconclusive: 4.25%,
Cc1onc(-c2c(F)cccc2Cl)c1-c1nnc(-c2ccc(C(F)(F)F)cc2)o1,inactive: 20.2%,
OCC#CCSc1nnc(-c2ccccc2Br)o1,inconclusive: 3.67%,
O=C(N/N=C\c1c(O)ccc2ccccc12)c1ccc(S(=O)(=O)N2CCCCC2)cc1,inactive: -0.746%,
O=C(CCn1c(=S)[nH]c2cc3c(cc2c1=O)OCO3)NCc1cccc(Cl)c1,inactive: 1.58%,
COc1cc(/C=N/N=C(/N)c2nonc2N)cc(Br)c1OCc1cccc(C)c1,,"inconclusive: 2.91 µM [rising, full curve, poor fit]"
COc1ccc(Cl)cc1NC(=O)CSc1nc(=O)n(Cc2ccco2)c2c1CCC2,,"inconclusive: 1.26 µM [rising, full curve, poor fit]"
Cc1ccc2c(Cl)cc(Cl)c(OCC(=O)Nc3cc(C)on3)c2n1,,"inconclusive: 3.55 µM [falling, partial curve, poor fit]"
Cc1ccc(N2C(=O)CS/C2=C(\C(Cl)=C(Cl)Cl)[N+](=O)[O-])cc1,,"inconclusive: 4.11 µM [falling, partial curve]"

SMILES,"activity change, negative = inhibition",Potency
O=C(Nc1cccc(-c2csc(Nc3ccc(Cl)cc3)n2)c1)c1cccc(C(F)(F)F)c1,inactive: 13.8%,
O=C(CCCN=C1NS(=O)(=O)c2ccccc21)OCC(=O)c1ccc(F)cc1,inactive: 3.24%,
COc1ccc(NC(=S)N(CCCN2CCOCC2)Cc2cn(C)c3ccccc23)cc1OC,inactive: -0.859%,
COc1cccc(-c2nn(C)c3sc(C(=O)N4CCOCC4)cc23)c1,inconclusive: -21%,
Cc1ccc(C(=O)Nc2ccc(N3CCCC3)cc2)cc1,,"inconclusive: 11.2 µM [falling, partial curve, poor fit]"
O=C(O)c1ccc(-c2ccc(OS(=O)(=O)c3ccccc3F)cc2)cc1,,"inconclusive: 3.55 µM [falling, partial curve, poor fit]"
CC(C)(C)c1ccc(C(=O)Nc2ccc(Cl)cc2)cc1,inconclusive: -0.0453%,
C[n+]1cnn2c1SCC1(COC1)C2,inconclusive: 6.71%,
O=C(O)CSc1ncnc2sc3c(c12)CCC3,inconclusive: 5%,
O=C(CC1C(=O)NCCN1CC1CCCCC1)NCc1ccc(F)cc1F (stereo not drawn),inactive: -3.31%,
COc1ccc(F)cc1S(=O)(=O)NCC(c1ccco1)S(=O)(=O)c1cccs1 (stereo not drawn),inactive: 0.325%,
CCCNC(=O)NS(=O)(=O)c1cnccc1Sc1ccc(Cl)cc1,inconclusive: -11.5%,
Cc1cc(NC(=O)CCSc2ccccc2)ccc1Br,inconclusive: 14.7%,
O=C1CCN=C(Nc2ccc(F)cc2)N1Cc1ccccc1,,"inconclusive: 23.1 µM [falling, single point]"
COc1ccc(C(=O)Nn2c(SCC(=O)NCC3CCCO3)nc3ccccc3c2=O)cc1 (stereo not drawn),,"inconclusive: 29.1 µM [rising, single point]"
Cc1cccc(CCNC(=O)c2oc3c(C)c(C)ccc3c2C)n1,inconclusive: -13.4%,
CN(CC(=O)NCCc1ccccc1)Cc1ccco1,inactive: -19.2%,
CCN(CC)C(=O)c1cc2cc([N+](=O)[O-])ccc2s1,inconclusive: 7.64%,
CCOC(=O)c1ccc(NC(=O)c2c(NCc3sccc3C)sc3c2CCC(C)C3)cc1 (stereo not drawn),,"inconclusive: 22.4 µM [falling, single point]"
N#CC1=C(N)NC(SCC(=O)c2ccc(Br)cc2)=C(C#N)C12CCCCC2,inconclusive: -19.8%,

# Some of the entries above in a different format.
SMILES | activity change, negative = inhibition | Potency
O=C(CN1CCN(S(=O)(=O)c2ccc3ccccc3c2)CC1)N1CCc2ccccc2C1 | inconclusive: -75.6% | 
Cc1cc(=O)oc2cc(OCC(=O)N/N=C/c3cc([N+](=O)[O-])ccc3O)ccc12 | inactive: 25.2% | 
CN(C)S(=O)(=O)c1cccc(NC(=O)c2ccc3c(c2)OCCO3)c1 | inconclusive: -0.661% | 
Cc1cc(NC(=O)c2cc(-c3ccc(O)cc3)on2)no1 |  | inconclusive: 12.6 µM [falling, partial curve]
COc1ccc(/C=C/c2nc(-c3ccccc3)cc(=O)[nH]2)cc1 | inconclusive: -7.63% | 
Cc1ccc(-n2ncc3c(Nc4ccc(Oc5ccccc5)cc4)ncnc32)c(C)c1 | inconclusive: 23.4% | 
CCN(CC)C(=O)c1cc2cc([N+](=O)[O-])ccc2s1 | inconclusive: 7.64% | 
